# Data taken from ChEMBL document CHEMBL3137667, “[Drug-induced liver injury; fourteenth updated edition of the bibliographic database of liver injuries and related drugs]” (Gastroenterol Clin Biol, 2004).
# Details: human
# 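Further: count of indexed literature references reporting vascular liver injury in humans, e.g. peliosis hepatitis, hepatic veno-occlusive disease or Budd-Chiari syndrome.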
row,Structure (SMILES),Hepatotoxicity (association with vascular disease)
1,CCC[C@@H]1C[C@@H](C(=O)N[C@@H]([C@H]2O[C@H](SC)[C@H](O)[C@@H](O)[C@H]2O)[C@H](C)Cl)N(C)C1 [CLINDAMYCIN],0
2,COc1cc2c(cc1OC)C(=O)C(CC1CCN(Cc3ccccc3)CC1)C2 (configuration not stated) [DONEPEZIL],0
3,O=C1OCCN1/N=C/c1ccc([N+](=O)[O-])o1 [FURAZOLIDONE],0
4,COC(=O)C1=C(C)NC(C)=C(C(=O)OC)C1c1ccccc1[N+](=O)[O-] [NIFEDIPINE],0
5,CCn1cc(C(=O)O)c(=O)c2cc(F)c(N3CCN(C)CC3)cc21 [PEFLOXACIN],0
6,Nc1nc2ccc(OC(F)(F)F)cc2s1 [RILUZOLE],0
7,CN1c2ccccc2C(NCCCCCCC(=O)O)c2ccc(Cl)cc2S1(=O)=O (configuration not stated) [TIANEPTINE],0
